Results are given in words; binding and its absence hold for the method and conditions named. Binding seen in cells or lysates may run through a third protein. These calls come from enrichment with a bait or labelling near it, and not all partners need be listed.
B1: elongator protein complex 1 (ELP1) (protein, UniProt Q7TT37 1-1333)
chain: MRNLKLHRTLEFRDIQAPGKPQCFCLRAEQGTVLIGSERGLTEVDPVRREVKTEISLVAEGFLPEDGSGCIVGIQDLLDQESVCVATASGDVIVCNLSTQQLECVGSVASGISVMSWSPDQELLLLATAQQTLIMMTKDFEVIAEEQIHQDDFGEGKFVTVGWGSKQTQFHGSEGRPTAFPVQLPENALPWDDRRPHITWRGDGQYFAVSVVCRQTEARKIRVWNREFALQSTSESVPGLGPALAWKPSGSLIASTQDKPNQQDVVFFEKNGLLHGHFTLPFLKDEVKVNDLLWNADSSVLAIWLEDLPKEDSSTLKSYVQLWTVGNYHWYLKQSLPFSTTGKNQIVSLLWDPVTPCRLHVLCTGWRYLCCDWHWTTDRSSGNSANDLANVAVIDGNRVLVTVFRQTVVPPPMCTYRLLIPHPVNQVIFSAHLGNDLAVLDASNQISVYKCGDKPNMDSTVKLGAVGGNGFKVPLTTPHLEKRYSIQFGNNEEEEEEEVNALQLSFLTWVEDDTFLAISYSHSSSQSIIHHLTVTHSEVDEEQGQLDVSSSVTVDGVVIGLCCCSKTKSLAVQLADGQVLKYLWESPSLAVEPWKNSEGIPVRFVHPCTQMEVATIGGEECVLGLTDRCRFFINDTEVASNITSFAVCDDFLLVTTHSHTCQVFSLSGASLKMLQAALSGSHEASGEILRKVERGSRIVTVVPQDTKLILQMPRGNLEVVHHRALVLAQIRKWLDKLMFKEAFECMRKLRINLNLIHDHNPKVFLENVETFVKQIDSVNHINLFFTELREEDVTKTMYPPPITKSVQVSTHPDGKKLDLICDAMRAAMEAINPRKFCLSILTSHVKKTTPELEIVLQKVQELQGNLPFDPESVSVEEALKYLLLLVDVNELFNHSLGTYDFNLVLMVAEKSQKDPKEYLPFLNTLKKMETNYQRFTIDKYLKRYEKALGHLSKCGPEYFTECLNLIKDKNLYKEALKLYRPDSPQYQAVSMAYGEHLMQEHLYEPAGLVFARCGAQEKALEAFLACGSWQQALCVAAQLQMSKDKVAGLARTLAGKLVEQRKHSEAATVLEQYAQDYEEAVLLLLEGSAWEEALRLVYKYDRVDIIETSVKPSILEAQKNYMDFLDSETATFIRHKNRLQVVRALRRQAPQVHVDHEVAHGPESDLFSETSSIMSGSEMSGRYSHSNSRISARSSKNRRKAERKKHSLKEGSPLEGLALLEALSEVVQSVEKLKDEVRAILKVLFLFEFEEQAKELQRAFESTLQLMERAVPEIWTPAGQQSSTTPVLGPSSTANSITASYQQQKTCVPALDAGVYMPPKMDPRSQWKLSLLE
B2: WDR1 (protein, UniProt O88342 1-606)
chain: MPYEIKKVFASLPQVERGVSKILGGDPKGDHFLYTNGKCVILRNIDNPAIADIYTEHAHQVVVAKYAPSGFYIASGDISGKLRIWDTTQKEHLLKYEYQPFAGKIKDIAWTEDSKRIAVVGEGREKFGAVFLWDTGSSVGEITGHNKVINSVDIKQTRPYRLATGSDDNCAAFFEGPPFKFKFTIGDHSRFVNCVRFSPDGNRFATASADGQIFIYDGKTGEKVCALGESKAHDGGIYAISWSPDSTHLLSASGDKTSKIWDVNVNSVVSTFPMGSNVLDQQLGCLWQKDHLLSISLSGYINYLDKNNPSKPLRVIKGHSKSIQCLTVHRNGGKSYIYSGSHDGHINYWDSETGENDSFSGKGHTNQVSRMTVNESEQLVSCSMDDTVRYTNLTLRDYSGQGVVKLDVQPKCVAVGPGGYTVVVCIGQIVLLKDQKKCFSIDNPGYEPEVVAVHPGGDTVAVGGTDGNVRVYSILASTLKDEGKLLEAKGPVTDVAYSHDGAFLAVCDASKVVTVFSVADGYSENNVFYGHHAKIVCLAWSPDNEHFASGGMDMMVYVWTLSDPETKVKIQDAHRLHHVSSLAWLDEHTLVTTSHDASVKEWTITY

Amino acid sequences for entries named in this document (tags omitted).
UniProt Q08642: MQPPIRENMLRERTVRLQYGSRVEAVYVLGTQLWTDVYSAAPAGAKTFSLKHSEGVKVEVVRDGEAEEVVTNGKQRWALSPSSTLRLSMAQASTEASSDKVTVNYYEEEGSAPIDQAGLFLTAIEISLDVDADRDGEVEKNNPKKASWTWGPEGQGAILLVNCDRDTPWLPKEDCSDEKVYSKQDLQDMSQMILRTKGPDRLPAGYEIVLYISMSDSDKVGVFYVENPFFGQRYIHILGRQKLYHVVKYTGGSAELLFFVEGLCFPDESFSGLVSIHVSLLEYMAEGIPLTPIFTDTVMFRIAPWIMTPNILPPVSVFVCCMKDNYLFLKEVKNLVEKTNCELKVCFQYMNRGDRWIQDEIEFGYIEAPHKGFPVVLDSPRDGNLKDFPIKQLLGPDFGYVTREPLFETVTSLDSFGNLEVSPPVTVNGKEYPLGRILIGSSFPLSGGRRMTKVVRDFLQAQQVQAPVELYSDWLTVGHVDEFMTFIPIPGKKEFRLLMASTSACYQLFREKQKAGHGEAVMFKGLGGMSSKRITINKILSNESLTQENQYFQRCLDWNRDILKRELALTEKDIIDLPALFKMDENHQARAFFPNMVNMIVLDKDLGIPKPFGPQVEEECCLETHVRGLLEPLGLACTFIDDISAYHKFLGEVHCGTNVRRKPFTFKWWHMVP
UniProt P19096: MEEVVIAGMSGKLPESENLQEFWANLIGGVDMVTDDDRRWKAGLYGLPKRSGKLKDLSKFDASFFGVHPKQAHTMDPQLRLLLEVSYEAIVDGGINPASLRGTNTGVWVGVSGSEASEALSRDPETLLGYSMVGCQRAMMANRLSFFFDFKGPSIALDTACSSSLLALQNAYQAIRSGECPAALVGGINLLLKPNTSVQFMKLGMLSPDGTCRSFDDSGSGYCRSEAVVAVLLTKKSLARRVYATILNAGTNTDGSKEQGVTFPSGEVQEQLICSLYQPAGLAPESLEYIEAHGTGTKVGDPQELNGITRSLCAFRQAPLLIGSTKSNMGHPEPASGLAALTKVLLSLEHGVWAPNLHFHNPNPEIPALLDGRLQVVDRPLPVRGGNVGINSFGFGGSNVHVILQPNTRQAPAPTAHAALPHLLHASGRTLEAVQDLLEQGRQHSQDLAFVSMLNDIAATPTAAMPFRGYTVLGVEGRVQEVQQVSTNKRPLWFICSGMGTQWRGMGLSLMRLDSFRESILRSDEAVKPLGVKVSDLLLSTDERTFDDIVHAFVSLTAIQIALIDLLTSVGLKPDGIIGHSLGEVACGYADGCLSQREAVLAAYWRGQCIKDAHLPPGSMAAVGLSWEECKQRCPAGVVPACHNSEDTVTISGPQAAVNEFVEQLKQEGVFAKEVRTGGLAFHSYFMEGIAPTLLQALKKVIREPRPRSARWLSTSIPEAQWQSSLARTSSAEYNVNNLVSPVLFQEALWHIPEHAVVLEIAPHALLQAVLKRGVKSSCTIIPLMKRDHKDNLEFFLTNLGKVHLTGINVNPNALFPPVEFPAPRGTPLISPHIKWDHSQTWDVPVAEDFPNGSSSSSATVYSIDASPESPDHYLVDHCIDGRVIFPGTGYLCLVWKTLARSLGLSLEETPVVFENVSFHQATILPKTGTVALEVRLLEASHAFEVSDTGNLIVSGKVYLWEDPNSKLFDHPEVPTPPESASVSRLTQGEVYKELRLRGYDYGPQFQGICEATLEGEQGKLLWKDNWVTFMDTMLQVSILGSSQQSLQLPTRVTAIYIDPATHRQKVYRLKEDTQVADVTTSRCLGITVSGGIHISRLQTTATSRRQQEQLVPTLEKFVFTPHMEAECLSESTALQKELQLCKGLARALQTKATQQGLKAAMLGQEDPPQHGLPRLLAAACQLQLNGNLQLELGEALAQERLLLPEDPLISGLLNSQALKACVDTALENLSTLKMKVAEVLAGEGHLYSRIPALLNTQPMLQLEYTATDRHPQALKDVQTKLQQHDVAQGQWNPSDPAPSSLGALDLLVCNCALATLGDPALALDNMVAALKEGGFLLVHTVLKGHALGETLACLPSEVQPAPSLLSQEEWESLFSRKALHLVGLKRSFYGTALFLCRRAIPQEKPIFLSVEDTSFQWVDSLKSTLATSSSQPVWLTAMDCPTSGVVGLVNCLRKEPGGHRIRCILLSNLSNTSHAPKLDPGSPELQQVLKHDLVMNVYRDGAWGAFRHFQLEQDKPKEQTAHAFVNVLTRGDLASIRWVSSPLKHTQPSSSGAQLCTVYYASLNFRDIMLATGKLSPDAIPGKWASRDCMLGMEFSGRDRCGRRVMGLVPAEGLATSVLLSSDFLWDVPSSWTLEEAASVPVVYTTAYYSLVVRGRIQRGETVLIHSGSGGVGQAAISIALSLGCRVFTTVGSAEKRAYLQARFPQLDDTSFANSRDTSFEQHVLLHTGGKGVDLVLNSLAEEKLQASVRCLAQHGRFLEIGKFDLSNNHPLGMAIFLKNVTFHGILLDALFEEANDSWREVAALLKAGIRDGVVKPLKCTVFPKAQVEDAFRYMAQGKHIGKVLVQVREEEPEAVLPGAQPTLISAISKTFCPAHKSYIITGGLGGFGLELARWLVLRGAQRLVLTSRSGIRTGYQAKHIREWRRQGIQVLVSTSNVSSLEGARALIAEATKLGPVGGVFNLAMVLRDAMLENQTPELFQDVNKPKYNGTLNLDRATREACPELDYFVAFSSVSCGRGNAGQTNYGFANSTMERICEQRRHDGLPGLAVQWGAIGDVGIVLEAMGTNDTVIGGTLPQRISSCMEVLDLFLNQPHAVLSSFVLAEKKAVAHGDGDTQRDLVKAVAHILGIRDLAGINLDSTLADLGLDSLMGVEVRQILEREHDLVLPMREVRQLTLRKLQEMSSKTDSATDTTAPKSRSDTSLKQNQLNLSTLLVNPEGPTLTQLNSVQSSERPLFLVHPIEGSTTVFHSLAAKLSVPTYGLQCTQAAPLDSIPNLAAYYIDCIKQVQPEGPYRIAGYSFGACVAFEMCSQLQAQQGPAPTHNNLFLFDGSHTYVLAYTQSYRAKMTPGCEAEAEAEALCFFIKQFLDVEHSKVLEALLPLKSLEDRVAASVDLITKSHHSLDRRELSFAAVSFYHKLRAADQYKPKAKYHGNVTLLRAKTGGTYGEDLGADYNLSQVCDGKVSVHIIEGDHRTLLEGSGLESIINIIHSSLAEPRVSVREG
UniProt P70168: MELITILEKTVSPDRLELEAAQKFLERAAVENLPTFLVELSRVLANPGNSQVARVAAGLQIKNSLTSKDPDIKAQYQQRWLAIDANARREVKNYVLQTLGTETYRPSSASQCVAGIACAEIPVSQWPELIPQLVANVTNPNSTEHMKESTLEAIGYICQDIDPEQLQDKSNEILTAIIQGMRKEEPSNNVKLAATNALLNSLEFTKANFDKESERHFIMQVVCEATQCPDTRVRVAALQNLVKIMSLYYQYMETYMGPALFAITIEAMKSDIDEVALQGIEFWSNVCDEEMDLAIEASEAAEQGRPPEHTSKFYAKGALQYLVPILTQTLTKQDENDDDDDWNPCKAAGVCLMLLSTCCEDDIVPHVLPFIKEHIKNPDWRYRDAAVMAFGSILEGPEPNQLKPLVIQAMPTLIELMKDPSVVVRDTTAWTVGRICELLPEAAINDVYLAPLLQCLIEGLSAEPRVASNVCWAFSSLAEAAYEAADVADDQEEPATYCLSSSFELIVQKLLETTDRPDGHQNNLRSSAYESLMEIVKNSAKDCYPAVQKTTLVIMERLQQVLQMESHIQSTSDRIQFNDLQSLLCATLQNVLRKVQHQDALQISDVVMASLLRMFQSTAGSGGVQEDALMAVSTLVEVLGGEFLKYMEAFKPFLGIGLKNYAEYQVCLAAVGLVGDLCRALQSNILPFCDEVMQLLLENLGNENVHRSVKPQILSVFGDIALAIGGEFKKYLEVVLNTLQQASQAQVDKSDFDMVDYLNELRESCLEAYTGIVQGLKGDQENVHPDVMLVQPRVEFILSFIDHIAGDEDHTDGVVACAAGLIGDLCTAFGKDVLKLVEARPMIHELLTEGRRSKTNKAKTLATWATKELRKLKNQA

The molecules below were run against biotin-tagged PAD2 (peptidylarginine deiminase 2) (UniProt Q08642) (assay: affinity purification with mass spectrometry; SILAC: BirA control cells (light) and bioPadi2 cells (heavy), proliferating and 2-days differentiated Oli-neu; cells fixed 8 min in 1% formaldehyde, lysed and sonicated; biotin-tagged PAD2 pulled down on streptavidin beads overnight at 4°C; beads of both conditions combined, on-bead trypsin digest, LC-MS/MS; interactors: log2(H/L) above 1 in both conditions).

binding, binds:
FASN (from UniProt P19096 1-2504)
KPNB1 (from UniProt P70168 1-876)
B1
B2
